The list shows a part of the results.
Experiments:
Test in all cases: log2 fold change, soluble protein after heating vs DMSO (PISA); higher = thermal stabilisation; K562 cells, 10 uM, 30 min; active = over 0.2 and 3.5 SD of the protein, either way, in both replicates (recomputed)
[1] = compound: CN1CCN(CCOc2cc(OC3CCOCC3)c3c(Nc4c(Cl)ccc5c4OCO5)ncnc3c2)CC1 [saracatinib]
How it was run: (§1)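 Aliquots of K562 cells (2×10^6 cells/mL) treated with 10 μM compound for 30 min were heated for 3 min over 48°C-58°C. After pooling and extraction in PBS with 0.5% NP-40 at 4°C, soluble protein from a 21,000xg, 90 min spin was quantified by TMTpro 16plex LC-MS/MS with channel sums equalised. Thermal stability is expressed against control samples, from duplicates, as a log2 fold change.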

Sequences of proteins named here, by UniProt entry; tags and fusion partners are left off. A change or cut given only in a name is not applied to a line headed by its entry.
UniProt Q92793, whole entry, looked up: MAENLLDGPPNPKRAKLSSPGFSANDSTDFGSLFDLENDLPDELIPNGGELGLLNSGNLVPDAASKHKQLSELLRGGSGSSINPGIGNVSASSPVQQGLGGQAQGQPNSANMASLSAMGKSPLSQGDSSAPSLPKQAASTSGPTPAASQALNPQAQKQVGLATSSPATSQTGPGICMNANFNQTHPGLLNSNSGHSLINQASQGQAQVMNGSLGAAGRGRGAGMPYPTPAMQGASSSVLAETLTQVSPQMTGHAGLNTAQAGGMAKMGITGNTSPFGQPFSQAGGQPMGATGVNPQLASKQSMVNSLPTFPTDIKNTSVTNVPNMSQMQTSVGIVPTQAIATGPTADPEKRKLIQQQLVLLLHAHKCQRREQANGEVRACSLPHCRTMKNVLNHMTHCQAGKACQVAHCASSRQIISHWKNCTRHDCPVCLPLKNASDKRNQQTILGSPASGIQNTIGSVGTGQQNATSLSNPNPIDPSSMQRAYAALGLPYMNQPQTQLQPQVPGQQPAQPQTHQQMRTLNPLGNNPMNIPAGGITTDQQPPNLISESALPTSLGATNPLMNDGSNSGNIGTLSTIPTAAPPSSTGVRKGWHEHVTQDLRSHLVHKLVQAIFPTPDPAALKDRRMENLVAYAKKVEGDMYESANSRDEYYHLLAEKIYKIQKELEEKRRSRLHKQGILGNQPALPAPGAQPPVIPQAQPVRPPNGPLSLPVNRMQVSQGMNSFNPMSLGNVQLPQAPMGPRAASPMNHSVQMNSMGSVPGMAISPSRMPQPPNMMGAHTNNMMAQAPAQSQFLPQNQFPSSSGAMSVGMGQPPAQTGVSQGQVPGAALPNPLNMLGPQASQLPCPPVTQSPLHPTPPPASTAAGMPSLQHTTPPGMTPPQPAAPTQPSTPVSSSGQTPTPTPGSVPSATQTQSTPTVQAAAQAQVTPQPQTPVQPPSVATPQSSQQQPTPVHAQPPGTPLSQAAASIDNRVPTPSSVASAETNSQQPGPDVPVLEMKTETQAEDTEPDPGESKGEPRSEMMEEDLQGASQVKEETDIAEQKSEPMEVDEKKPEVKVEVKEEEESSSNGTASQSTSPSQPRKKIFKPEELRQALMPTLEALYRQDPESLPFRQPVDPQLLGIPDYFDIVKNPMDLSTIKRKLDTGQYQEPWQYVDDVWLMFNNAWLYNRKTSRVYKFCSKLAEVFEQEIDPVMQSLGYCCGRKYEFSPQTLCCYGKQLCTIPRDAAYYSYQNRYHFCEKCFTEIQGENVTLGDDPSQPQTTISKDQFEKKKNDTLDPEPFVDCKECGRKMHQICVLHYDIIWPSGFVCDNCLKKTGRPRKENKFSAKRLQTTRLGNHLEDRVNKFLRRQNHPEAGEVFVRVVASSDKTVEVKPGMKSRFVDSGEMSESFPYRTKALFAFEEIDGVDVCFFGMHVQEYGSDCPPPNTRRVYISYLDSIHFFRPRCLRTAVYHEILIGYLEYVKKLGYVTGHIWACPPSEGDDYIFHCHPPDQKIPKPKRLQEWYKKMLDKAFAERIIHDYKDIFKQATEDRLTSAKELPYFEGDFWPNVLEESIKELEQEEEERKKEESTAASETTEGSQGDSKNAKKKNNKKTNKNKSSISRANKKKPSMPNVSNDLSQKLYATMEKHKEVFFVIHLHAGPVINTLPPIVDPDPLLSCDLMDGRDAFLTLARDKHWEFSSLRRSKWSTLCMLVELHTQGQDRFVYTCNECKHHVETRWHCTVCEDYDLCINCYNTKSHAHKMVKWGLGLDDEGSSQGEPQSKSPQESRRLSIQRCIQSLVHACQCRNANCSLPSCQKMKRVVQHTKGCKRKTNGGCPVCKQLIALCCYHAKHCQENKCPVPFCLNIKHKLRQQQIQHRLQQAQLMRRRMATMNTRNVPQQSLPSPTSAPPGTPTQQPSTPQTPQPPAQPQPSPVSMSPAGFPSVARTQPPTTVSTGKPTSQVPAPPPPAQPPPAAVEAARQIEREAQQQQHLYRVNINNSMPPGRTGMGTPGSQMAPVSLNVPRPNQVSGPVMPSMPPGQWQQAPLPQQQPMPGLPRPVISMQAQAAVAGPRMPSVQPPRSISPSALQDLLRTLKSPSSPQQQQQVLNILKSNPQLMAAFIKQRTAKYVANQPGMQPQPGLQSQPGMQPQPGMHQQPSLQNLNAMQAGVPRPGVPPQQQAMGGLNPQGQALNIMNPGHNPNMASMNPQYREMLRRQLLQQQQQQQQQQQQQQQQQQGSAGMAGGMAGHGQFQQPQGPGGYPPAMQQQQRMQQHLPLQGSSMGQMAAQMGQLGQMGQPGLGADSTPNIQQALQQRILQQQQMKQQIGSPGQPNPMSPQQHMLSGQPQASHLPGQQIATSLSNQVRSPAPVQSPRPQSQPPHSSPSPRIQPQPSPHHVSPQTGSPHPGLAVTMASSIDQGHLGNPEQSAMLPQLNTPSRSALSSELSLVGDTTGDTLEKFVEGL
UniProt Q9H0A8, whole entry, looked up: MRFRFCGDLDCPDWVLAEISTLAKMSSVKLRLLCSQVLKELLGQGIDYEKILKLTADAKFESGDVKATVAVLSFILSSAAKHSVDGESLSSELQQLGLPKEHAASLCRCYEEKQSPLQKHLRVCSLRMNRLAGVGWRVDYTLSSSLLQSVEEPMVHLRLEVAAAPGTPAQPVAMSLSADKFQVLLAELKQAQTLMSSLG
UniProt P35606: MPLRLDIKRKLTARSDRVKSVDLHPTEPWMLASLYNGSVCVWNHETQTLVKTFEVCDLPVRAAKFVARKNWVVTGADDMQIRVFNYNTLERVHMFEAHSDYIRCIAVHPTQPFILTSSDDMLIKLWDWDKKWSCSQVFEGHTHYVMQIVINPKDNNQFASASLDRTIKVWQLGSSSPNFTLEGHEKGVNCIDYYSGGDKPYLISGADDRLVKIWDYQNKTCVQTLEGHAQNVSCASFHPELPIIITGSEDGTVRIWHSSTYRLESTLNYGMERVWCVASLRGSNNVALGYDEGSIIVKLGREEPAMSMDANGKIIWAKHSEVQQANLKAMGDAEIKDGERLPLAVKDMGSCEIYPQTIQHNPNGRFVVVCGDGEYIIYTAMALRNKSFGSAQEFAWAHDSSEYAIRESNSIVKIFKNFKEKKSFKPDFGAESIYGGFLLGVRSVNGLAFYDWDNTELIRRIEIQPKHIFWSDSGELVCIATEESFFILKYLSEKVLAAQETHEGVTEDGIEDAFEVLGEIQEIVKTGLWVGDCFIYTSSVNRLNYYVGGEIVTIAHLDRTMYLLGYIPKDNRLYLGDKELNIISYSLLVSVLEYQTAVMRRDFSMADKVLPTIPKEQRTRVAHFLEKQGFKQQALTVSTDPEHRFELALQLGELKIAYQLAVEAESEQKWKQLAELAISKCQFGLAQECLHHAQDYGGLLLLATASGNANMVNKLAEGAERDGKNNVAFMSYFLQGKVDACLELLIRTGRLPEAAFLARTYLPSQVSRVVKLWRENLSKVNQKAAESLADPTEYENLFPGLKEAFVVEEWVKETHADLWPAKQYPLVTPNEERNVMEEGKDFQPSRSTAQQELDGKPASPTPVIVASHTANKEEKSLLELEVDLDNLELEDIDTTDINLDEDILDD
UniProt Q86VX2, whole entry, looked up: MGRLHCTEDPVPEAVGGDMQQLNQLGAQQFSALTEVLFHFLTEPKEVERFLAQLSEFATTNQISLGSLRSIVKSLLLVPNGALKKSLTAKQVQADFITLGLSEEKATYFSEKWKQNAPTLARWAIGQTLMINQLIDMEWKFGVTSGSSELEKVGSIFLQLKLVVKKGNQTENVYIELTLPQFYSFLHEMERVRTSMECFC
UniProt Q7L5N1: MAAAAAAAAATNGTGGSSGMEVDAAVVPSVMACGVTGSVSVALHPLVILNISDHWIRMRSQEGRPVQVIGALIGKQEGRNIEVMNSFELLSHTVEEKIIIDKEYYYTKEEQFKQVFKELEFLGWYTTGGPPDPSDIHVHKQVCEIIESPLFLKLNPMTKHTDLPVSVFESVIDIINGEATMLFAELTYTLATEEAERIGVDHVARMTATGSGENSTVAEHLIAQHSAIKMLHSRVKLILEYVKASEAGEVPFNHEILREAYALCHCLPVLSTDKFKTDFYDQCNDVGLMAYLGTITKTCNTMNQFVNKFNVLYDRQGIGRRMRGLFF
UniProt Q96SW2: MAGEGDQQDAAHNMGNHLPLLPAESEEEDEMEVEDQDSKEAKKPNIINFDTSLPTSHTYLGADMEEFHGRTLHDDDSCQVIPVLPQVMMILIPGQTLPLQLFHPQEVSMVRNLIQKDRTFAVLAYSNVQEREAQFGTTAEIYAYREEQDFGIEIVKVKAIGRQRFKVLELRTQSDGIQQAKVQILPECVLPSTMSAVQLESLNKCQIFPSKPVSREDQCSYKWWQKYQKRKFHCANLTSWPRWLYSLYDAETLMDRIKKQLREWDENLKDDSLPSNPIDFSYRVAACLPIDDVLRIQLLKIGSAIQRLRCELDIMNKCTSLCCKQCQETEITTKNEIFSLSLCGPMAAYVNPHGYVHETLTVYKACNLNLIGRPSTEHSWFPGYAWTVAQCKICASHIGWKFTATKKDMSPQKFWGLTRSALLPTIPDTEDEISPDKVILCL
UniProt Q14019: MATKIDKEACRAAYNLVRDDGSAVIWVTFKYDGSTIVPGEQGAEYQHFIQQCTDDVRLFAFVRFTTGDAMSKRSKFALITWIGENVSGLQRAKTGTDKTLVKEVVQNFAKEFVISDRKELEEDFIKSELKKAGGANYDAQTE
UniProt Q9NQ92: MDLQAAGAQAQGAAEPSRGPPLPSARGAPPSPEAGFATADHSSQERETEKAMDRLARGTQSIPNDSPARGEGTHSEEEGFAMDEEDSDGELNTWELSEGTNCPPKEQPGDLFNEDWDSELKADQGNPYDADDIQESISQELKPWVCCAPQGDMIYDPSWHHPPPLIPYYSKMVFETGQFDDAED
UniProt P31146: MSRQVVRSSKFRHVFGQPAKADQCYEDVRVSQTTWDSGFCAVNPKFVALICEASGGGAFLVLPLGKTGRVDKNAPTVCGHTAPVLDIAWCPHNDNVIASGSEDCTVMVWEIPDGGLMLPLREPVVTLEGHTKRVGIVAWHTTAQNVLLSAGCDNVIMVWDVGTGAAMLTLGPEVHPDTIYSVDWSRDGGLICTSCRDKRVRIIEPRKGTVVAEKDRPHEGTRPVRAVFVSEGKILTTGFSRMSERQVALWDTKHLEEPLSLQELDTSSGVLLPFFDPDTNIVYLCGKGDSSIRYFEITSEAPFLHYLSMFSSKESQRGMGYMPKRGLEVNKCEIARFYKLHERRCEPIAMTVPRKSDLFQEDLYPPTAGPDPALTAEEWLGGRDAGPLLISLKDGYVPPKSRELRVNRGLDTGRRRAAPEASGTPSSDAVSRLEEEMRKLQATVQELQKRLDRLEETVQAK
UniProt P61201: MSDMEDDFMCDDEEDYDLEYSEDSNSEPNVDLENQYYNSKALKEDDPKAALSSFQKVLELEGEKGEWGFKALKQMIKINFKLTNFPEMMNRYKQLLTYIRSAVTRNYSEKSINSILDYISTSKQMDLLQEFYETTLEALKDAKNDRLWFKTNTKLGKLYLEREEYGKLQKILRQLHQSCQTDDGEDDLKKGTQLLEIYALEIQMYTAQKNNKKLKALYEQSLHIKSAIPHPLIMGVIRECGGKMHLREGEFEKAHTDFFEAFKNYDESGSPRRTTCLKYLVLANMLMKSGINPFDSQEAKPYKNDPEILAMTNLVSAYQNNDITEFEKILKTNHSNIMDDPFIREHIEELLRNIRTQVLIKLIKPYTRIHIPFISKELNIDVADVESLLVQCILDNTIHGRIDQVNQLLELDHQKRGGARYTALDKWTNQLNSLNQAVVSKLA
UniProt Q08257: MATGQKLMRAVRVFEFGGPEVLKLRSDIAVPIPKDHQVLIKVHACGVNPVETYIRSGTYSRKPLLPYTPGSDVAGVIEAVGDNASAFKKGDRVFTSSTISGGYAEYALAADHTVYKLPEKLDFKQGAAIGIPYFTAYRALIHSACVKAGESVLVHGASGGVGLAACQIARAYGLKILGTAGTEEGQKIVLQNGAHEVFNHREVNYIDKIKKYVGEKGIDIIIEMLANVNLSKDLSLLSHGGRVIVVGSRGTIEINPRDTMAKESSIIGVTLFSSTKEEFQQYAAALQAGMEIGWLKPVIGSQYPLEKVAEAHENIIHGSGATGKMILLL
UniProt P13073, whole entry, looked up: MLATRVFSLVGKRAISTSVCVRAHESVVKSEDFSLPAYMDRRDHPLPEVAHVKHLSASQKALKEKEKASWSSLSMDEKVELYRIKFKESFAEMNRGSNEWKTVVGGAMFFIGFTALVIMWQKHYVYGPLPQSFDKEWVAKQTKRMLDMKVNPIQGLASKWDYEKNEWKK
UniProt Q9GZQ3, whole entry, looked up: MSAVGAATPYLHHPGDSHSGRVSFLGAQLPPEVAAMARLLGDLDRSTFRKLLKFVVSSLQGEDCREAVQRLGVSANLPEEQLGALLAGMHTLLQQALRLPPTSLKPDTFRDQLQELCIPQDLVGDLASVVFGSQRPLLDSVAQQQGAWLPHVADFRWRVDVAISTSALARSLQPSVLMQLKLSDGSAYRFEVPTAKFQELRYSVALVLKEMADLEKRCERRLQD
UniProt P12074, whole entry, looked up: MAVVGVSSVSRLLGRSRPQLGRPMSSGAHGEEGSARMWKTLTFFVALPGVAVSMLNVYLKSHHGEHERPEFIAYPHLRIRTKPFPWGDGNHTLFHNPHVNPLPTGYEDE

[2] = compound: CN1CCN(c2nc(C3=C(c4c[nH]c5ccccc45)C(=O)NC3=O)c3ccccc3n2)CC1 [sotrastaurin]
How it was run: as §1

[3] = compound: CN1CC[C@H](c2c(O)cc(O)c3c(=O)cc(-c4ccccc4Cl)oc23)[C@H](O)C1 [alvocidib]
How it was run: as §1

[4] = compound: CN1CCc2c(c3ccccc3n2Cc2ccc(C(=O)NO)cc2)C1 [Tubastatin A]
How it was run: as §1

[5] = compound: CNC(=O)C1=CC=CC=C1NC2=NC(=NC=C2Cl)NC3=C(C=C(C=C3)N4CCOCC4)OC
How it was run: as §1

[6] = compound: CNC(=O)c1ccc(Nc2ncc(C(F)(F)F)c(NCc3nccnc3N(C)S(C)(=O)=O)n2)cc1 [defactinib]
How it was run: as §1

[7] = compound: CNCc1ccc(-c2[nH]c3cc(F)cc4c3c2CCNC4=O)cc1 [rucaparib]
How it was run: as §1

[8] = compound: CNc1nc(-c2ccc3c(N)n[nH]c3c2)cc(N2C[C@@H](C(=O)NC3CCCCC3)CC[C@H]2C)n1
How it was run: as §1

[9] = compound: COC(=O)N[C@@H](C)CNc1nccc(-c2cn(C(C)C)nc2-c2cc(Cl)cc(NS(C)(=O)=O)c2F)n1 [encorafenib]
How it was run: as §1

[10] = compound: COC(=O)[C@H](CCSC)NC(=O)C1=C(C=C(C=C1)NC[C@H](CS)N)C2=CC=CC=C2
How it was run: as §1

Measured: log2 fold change

CREBBP (UniProt Q92793)
inactive: [1] 0.006 | [2] -0.007 | [3] -0.045 | [4] 0.028 | [5] -0.009 | [6] -0.069 | [7] -0.034 | [8] -0.001 | [9] 0.021 | [10] -0.038

COMMD4 (UniProt Q9H0A8)
inactive: [1] 0.036 | [2] -0.048 | [3] -0.175 | [4] 0.045 | [5] -0.055 | [6] -0.076 | [7] 0.024 | [8] -0.008 | [9] 0.079 | [10] -0.052

CPPED1 (UniProt Q9BRF8)
inactive: [1] 0.029 | [2] 0.023 | [3] 0.001 | [4] 0.047 | [5] -0.062 | [6] -0.013 | [7] -0.085 | [8] -0.077 | [9] 0.032 | [10] 0.02

COX19 (UniProt Q49B96)
inactive: [1] 0.196 | [2] 0.121 | [3] -0.035 | [4] 0.023 | [5] -0.025 | [6] -0.041 | [7] -0.05 | [8] -0.074 | [9] -0.02 | [10] -0.002

COPB2 (UniProt P35606)
inactive: [1] 0.024 | [2] 0.008 | [3] -0.024 | [4] 0.01 | [5] 0.019 | [6] -0.04 | [7] 0.005 | [8] 0.007 | [9] 0.027 | [10] -0.011

COPS7B (UniProt Q9H9Q2)
inactive: [1] 0.03 | [2] 0.003 | [3] -0.014 | [4] -0.024 | [5] 0.01 | [6] -0.023 | [7] 0.041 | [8] 0.025 | [9] 0.022 | [10] -0.002

COMMD7 (UniProt Q86VX2)
inactive: [1] 0.055 | [2] 0.008 | [3] -0.075 | [4] -0.002 | [5] -0.055 | [6] -0.008 | [7] 0 | [8] -0.022 | [9] 0.022 | [10] -0.005

COPS6 (UniProt Q7L5N1)
inactive: [1] 0.071 | [2] -0.052 | [3] -0.053 | [4] -0.04 | [5] 0.001 | [6] -0.045 | [7] -0.014 | [8] -0.001 | [9] 0.02 | [10] 0.004

CRBN (UniProt Q96SW2)
inactive: [1] 0.028 | [2] 0.077 | [3] 0.012 | [4] -0.05 | [5] -0.004 | [6] -0.01 | [7] -0.024 | [8] -0.058 | [9] -0.005 | [10] 0.035

COMTD1 (UniProt Q86VU5)
inactive: [1] -0.048 | [2] 0.017 | [3] -0.037 | [4] -0.048 | [5] -0.033 | [6] -0.087 | [7] 0.011 | [8] 0.006 | [9] 0.023 | [10] -0.092

CSNK1G3 (UniProt Q9Y6M4)
inactive: [1] -0.06 | [2] -0.131 | [3] 0.151 | [4] 0.08 | [5] 0.004 | [6] 0.065 | [7] 0.102 | [8] -0.055 | [9] 0.131 | [10] -0.006

COQ3 (UniProt Q9NZJ6)
inactive: [1] -0.006 | [2] 0.111 | [3] -0.063 | [4] -0.117 | [5] 0.045 | [6] 0.017 | [7] -0.062 | [8] 0.036 | [9] -0.032 | [10] -0.021

COTL1 (UniProt Q14019)
inactive: [1] -0.019 | [2] -0.018 | [3] -0.052 | [4] -0.009 | [5] 0.024 | [6] -0.046 | [7] -0.094 | [8] -0.01 | [9] 0.02 | [10] -0.019

CRPPA (UniProt A4D126)
inactive: [1] 0.004 | [2] 0.023 | [3] -0.051 | [4] 0.013 | [5] -0.02 | [6] -0.03 | [7] -0.01 | [8] -0.02 | [9] -0.045 | [10] -0.004

COPRS (UniProt Q9NQ92)
inactive: [1] 0.121 | [2] 0.053 | [3] 0.029 | [4] 0.041 | [5] -0.046 | [6] 0.018 | [7] -0.061 | [8] -0.017 | [9] -0.065 | [10] -0.016

COPA isoform 2 (UniProt P53621)
inactive: [1] 0 | [2] -0.007 | [3] -0.032 | [4] -0.016 | [5] 0.025 | [6] -0.026 | [7] 0.022 | [8] 0.002 | [9] 0.038 | [10] -0.004

COX7A2L (UniProt O14548)
inactive: [1] 0.029 | [2] 0.021 | [3] 0.037 | [4] -0.014 | [5] 0.017 | [6] 0.021 | [7] -0.047 | [8] -0.052 | [9] -0.048 | [10] -0.044

CROCC (UniProt Q5TZA2)
inactive: [1] -0.018 | [2] -0.007 | [3] -0.062 | [4] -0.042 | [5] 0.097 | [6] 0.032 | [7] -0.154 | [8] -0.033 | [9] -0.005 | [10] -0.018

Quoted at random: 2 records from the list
COX7A2L (UniProt O14548)
inactive: [1] 0.029 | [2] 0.021 | [3] 0.037 | [4] -0.014 | [5] 0.017 | [6] 0.021 | [7] -0.047 | [8] -0.052 | [9] -0.048 | [10] -0.044

COPRS (UniProt Q9NQ92)
inactive: [1] 0.121 | [2] 0.053 | [3] 0.029 | [4] 0.041 | [5] -0.046 | [6] 0.018 | [7] -0.061 | [8] -0.017 | [9] -0.065 | [10] -0.016

(continued)

COQ6 (UniProt Q9Y2Z9)
inactive: [1] -0.003 | [2] 0.076 | [3] -0.047 | [4] 0 | [5] 0.02 | [6] -0.003 | [7] 0.012 | [8] 0.044 | [9] 0.005 | [10] -0.017

CORO1A (UniProt P31146)
inactive: [1] -0.091 | [2] -0.006 | [3] -0.032 | [4] 0.049 | [5] 0.086 | [6] -0.016 | [7] -0.014 | [8] 0.04 | [9] 0.02 | [10] 0.006

COPS7A (UniProt Q9UBW8)
inactive: [1] 0.026 | [2] 0.007 | [3] 0.009 | [4] 0.003 | [5] -0.019 | [6] -0.033 | [7] -0.042 | [8] -0.047 | [9] -0.007 | [10] 0.031

COPS2 (UniProt P61201)
inactive: [1] 0.052 | [2] -0.003 | [3] -0.071 | [4] 0.004 | [5] 0.015 | [6] -0.027 | [7] 0.008 | [8] 0.023 | [9] 0.007 | [10] -0.006

CPS1 isoform 3 (UniProt P31327)
inactive: [1] -0.105 | [2] 0.071 | [3] -0.02 | [4] -0.101 | [5] 0.055 | [6] 0.083 | [7] -0.268 | [8] 0.097 | [9] -0.021 | [10] -0.011

CRYZ (UniProt Q08257)
inactive: [1] 0.021 | [2] 0.03 | [3] -0.009 | [4] 0.009 | [5] -0.012 | [6] -0.019 | [7] -0.008 | [8] -0.011 | [9] -0.012 | [10] -0.007

COX4I1 (UniProt P13073)
inactive: [1] 0.053 | [2] 0.024 | [3] 0.017 | [4] 0.002 | [5] -0.025 | [6] 0.001 | [7] -0.075 | [8] -0.017 | [9] -0.009 | [10] 0.033

CRACR2A isoform 2 (UniProt Q9BSW2)
inactive: [1] 0.021 | [2] 0.029 | [3] 0.008 | [4] 0.023 | [5] -0.028 | [6] -0.017 | [7] -0.015 | [8] 0.036 | [9] 0.046 | [10] 0.052

COPZ1 isoform 4 (UniProt P61923)
inactive: [1] -0.042 | [2] 0.086 | [3] -0.056 | [4] 0.082 | [5] 0.089 | [6] 0.017 | [7] -0.063 | [8] -0.004 | [9] 0.007 | [10] 0.028

COMMD5 (UniProt Q9GZQ3)
inactive: [1] -0.003 | [2] -0.005 | [3] -0.05 | [4] 0.041 | [5] 0.074 | [6] 0 | [7] -0.075 | [8] -0.013 | [9] 0.011 | [10] 0.015

COX6A1 (UniProt P12074)
inactive: [1] -0.279 | [2] 0.008 | [3] -0.059 | [4] -0.008 | [5] 0.059 | [6] -0.169 | [7] -0.203 | [8] 0.007 | [9] 0.074 | [10] 0.117

Source: the supplement of paper PMC10849652
